Results as given in patent publication EP1693456A1.

Molecular target: SYNE-1 (UniProt Q8NF91)
Assay: yeast two hybrid screen of cDNA libraries

binding: binds
B1: bait designed in the C-terminal region of the hBAI2 gene product (without insertion of the amino acid residue) (protein, human, UniProt O60241-2 1175-1584, looked up)
chain: MTDRRSVLFQALFAVFNSAQGFVITAVHCFLRREVQDVVKCQMGVCRADESEDSPDSCKNGQLQILSDFEKDVDLACQTVLFKEVNTCNPSTITGTLSRLSLDEDEEPKSCLVGPEGSLSFSPLPGNILVPMAASPGLGEPPPPQEANPVYMCGEGGLRQLDLTWLRPTEPGSEGDYMVLPRRTLSLQPGGGGGGGEDAPRARPEGTPRRAAKTVAHTEGYPSFLSVDHSGLGLGPAYGSLQNPYGMTFQPPPPTPSARQVPEPGERSRTMPRTVPGSTMKMGSLERKKLRYSDLDFEVMHTRKRHSELYHELNQKFHTFDRYRSQSTAKREKRWSVSSGGAAERSVCTDKPSPGERPSLSQHRRHQSWSTFKSMTLGSLPPKPRERLTLHRAAAWEPTEPPDGDFQTEV

No constants are given. Whether binding was seen depends on the method and setting. Binding can be weak; no strength is given.
